Laboratory results reported in patent US20090170711.
For at least one entry, the source does not settle the construct or the ends of the probe.

The chains behind the UniProt entries cited, without tags or fusion partners. Where a name states a change or a piece, a line headed by the entry shows the natural chain unless it says otherwise.
UniProt Q04609: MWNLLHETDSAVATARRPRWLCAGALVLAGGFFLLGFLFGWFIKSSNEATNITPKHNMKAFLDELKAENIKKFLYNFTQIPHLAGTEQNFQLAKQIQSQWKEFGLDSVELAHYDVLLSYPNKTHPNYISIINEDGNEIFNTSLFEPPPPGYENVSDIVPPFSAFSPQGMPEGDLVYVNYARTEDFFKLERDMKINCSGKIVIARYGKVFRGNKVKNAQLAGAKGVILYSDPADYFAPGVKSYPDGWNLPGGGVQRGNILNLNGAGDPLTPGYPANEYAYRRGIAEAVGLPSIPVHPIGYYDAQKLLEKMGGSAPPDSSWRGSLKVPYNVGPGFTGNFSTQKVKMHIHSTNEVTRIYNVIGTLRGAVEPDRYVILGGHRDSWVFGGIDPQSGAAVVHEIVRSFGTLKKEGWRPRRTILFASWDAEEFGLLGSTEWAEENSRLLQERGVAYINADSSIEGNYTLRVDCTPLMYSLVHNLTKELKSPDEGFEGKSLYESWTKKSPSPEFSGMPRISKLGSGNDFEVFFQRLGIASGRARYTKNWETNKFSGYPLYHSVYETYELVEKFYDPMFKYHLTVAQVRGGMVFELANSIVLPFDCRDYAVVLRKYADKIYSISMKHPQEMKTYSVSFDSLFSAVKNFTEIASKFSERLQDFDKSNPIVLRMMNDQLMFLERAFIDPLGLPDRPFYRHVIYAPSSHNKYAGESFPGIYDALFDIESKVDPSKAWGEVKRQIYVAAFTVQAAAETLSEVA

Target: PSMA (prostate-specific membrane antigen, on LnCap cells) (UniProt Q04609)
Test: activity in cells
Conditions: 2'-F C and U (2'-fluoro-CTP/UTP transcription); binding and internalization in LnCap cells by RT-qPCR; signal reduced by Riboshredder, abolished by azide/deoxyglucose plus Riboshredder; protein on the cell surface; protein details: endogenous on LnCap cells (ATCC); dose not given here

With “GGGAGGACGAUGCGGACCGAAAAAGACCUGACUUCUAUACUAAGUCUACGUUCCCAGACGACUCGCCCGA [A9 anti-PSMA aptamer]” the “functional effect of the aptamer” value was “active”.
